Experimental findings from PubChem BioAssay AID1508600 (Functional Genomics Laboratory (NCATS/FGL), 2020) are described below.

In all, about 53,000 sequences went through this assay and about 3,700 (7%) were called active.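 Rule for the calls: active = gene knockdowns whose robust z-score for IL-1 alpha signal is at least 2 or at most -2, so actives lie on both sides; inactive = the rest.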 The list shows a part of the results.

A short description of the experiment: Components of the Cytosolic LPS Sensing Pathway: Gene Identification via Genome-wide siRNA Screen.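 Note: robust z of the log signal after scaling to non-targeting control siRNA wells of the plate.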 The settings on record: RAW264.7 macrophages, IL-1a HTRF, actives lie on both sides, screened at 100 nM (by protocol), cells primed 5 h with Pam3CSK4 first. The procedure, abridged: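 IL-1a HTRF of supernatants after 24 hour LipidA transfection of Pam3CSK4-primed (5 hours) RAW264.7 cells, 48h post-siRNA transfection (100 nM). Scores: percent of plate negative-control median, then log-based robust z-score.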
CGAAUGAAGCUGACAUUGGTT against Ssx9: the z-score was inactive: 0.0231. Take CCGCUACCAACAGAGCAAATT against Trim9: the z-score is inactive: 0.636. In the case of GCUUGGUUGGAUCCUGAUUTT against Polr2g it was inactive: -1.77. For GGCAGAUGUAUGAAAUCUUTT against Fancc, the z-score is inactive: -0.196. In the case of GCACAUCAACAUUGAUACUTT against Atp11c, the z-score is inactive: -0.0521.

GGUGAAACCCUGAAAGUCCTT against Tmem154: the z-score was inactive: -0.169.

Consider UAAAAUAUGCGAGCUCGCGTT against Adam26b, for which the z-score is inactive: 1.35.

Turning to GAAGUGAAGAAAGUCAUCATT against Olfr1506, the z-score was inactive: 0.128.

In the case of GCAGCAACAUUCUUUGGAUTT against Adk, the z-score was inactive: 0.986. On to CCGGACCUCUGCGCAAUUUTT against Npb, for which the z-score was inactive: 0.289. In the case of GCCAAAUAUUAUUCCUACATT against Sec63 it was inactive: -0.282; in that of GCUGCACUUGAAAUCCGAGTT against Atg2b, inactive: 1.49. For the sequence GGUAGCUUAGAGGACUAACTT against Cidec, the z-score is inactive: -1.78. Take GGAUCCAAGGUGAAAAUAUTT against Fam131a: the z-score was active: -2.25.

Regarding CGACUGUCGUUUGUUGAUGTT against Tktl2, the z-score is inactive: -0.766.

As to GCUGUAAUUCCUAAGUUAUTT against Ubxn6, the z-score is inactive: 0.268. GGUUUCUGUUUUGUCACACTT against Slc22a13b: the z-score was inactive: -0.535.

With GCUAUGUGGGUUGUGCUAUTT against Olfr1361, the z-score is inactive: 0.734. With GGGCUAUGCAGACCUGUACTT against Cyb561, the z-score was active: -2.45. For the sequence GCAUGUGCUAUAAUGAUCATT against Gm5444, the z-score is inactive: 0.256. Regarding GGAUGAAUAUGGUGUUUCUTT against Rnf138, the z-score was active: -2.23.

Turning to CCUGGGUCAAACAAAAAAGTT against Bfar, the z-score is inactive: -0.531. With GGAUUUUGUUCCUCAAGAUTT against Pip4k2a, the z-score is inactive: -0.737. As to GGUUCAUAGGCAACUUUCUTT against Olfr1294, the z-score was inactive: -1.94. With UACAGGGUUAGCUCAUCACTT against Gm10439, the z-score was inactive: -0.544. Regarding GGCGUAGUACUUCUAAUACTT against Rab12, the z-score is inactive: -0.806. For GGAAGCUUACUUUUCUCUATT against Rprd1a, the z-score is inactive: 0.71. In the case of GGUCAUCGCUCAGUUAGAATT against Zfp879 it was inactive: 0.33; in that of GGCAGCCUUAUCCACGUGATT against Ces2c, inactive: 0.958; in that of GGAGAUACUGAGUACAUUCTT against Cd38, inactive: 0.115. GCCGAGUUAAGUUGACUUUTT against Ptpn12: the z-score was inactive: -0.0187.

Take GCUAAACCCAAAAACACAATT against Sim2: the z-score is inactive: 1.04.

CCAACCACAGGAUCAGAUGTT against Prrg4: the z-score was inactive: 0.556. As for GGAAAUGUAGUGAAGGGUGTT against Ndfip2, the z-score is active: 2.03.

As to GCAGCAUUUAGCUAGACAGTT against Agtr1b, the z-score was inactive: 0.934.

On to GGACUCUUUUAUGAGUUUGTT against Lims1, for which the z-score was inactive: 0.757. With CCAUACAAUAAGAGUGCUATT against Clec4a4, the z-score is inactive: 0.936.

Turning to GCAUGUCGCCUUGAAAUUATT against Cpne4, the z-score is inactive: 0.202. For GGAAGACCAUGUUUUAAAATT against Tm4sf20, the z-score is inactive: 0.521.

For the sequence CCCACAAAUUAAAGUCCGCTT against Cldn16, the z-score was inactive: 0.926.

Regarding GCUUUAAUGCCUAUUGCAATT against Apol7c, the z-score is inactive: 0.641. Regarding GGAAGACUACAUAAGAGACTT against Cxcl9, the z-score was inactive: 0.103.

Consider GGGCACUGACAAACGUAUUTT against Olfr433, for which the z-score was inactive: -0.34. With CCAAGACUCUUUAUUCAACTT against Rasip1, the z-score was inactive: 0.774. With GGAGUUGGUUUGUAUCAAATT against Fgf15, the z-score was inactive: 0.261. For the sequence CCCAGCACUUUUUCGCUCUTT against Olfr458, the z-score is inactive: 0.959. GGAACUCAAAGUCAAGGUUTT against Cryab: the z-score was inactive: -1.28. Consider CGGGUUCAACUAAAUUCAGTT against Dnajc5, for which the z-score was inactive: 0.279. Regarding GCAUGCGCGCUACACUCUATT against Adamts5, the z-score is inactive: -0.622. Consider GGACUCCUACAUGAUUGCUTT against Slc52a2, for which the z-score is inactive: -0.362. The figure for GGUCAUCAGAAGAAUCAAGTT against Arr3 is active: 2.13. Regarding GGAGUCCUUCUUUCACUGGTT against Pepd, the z-score is inactive: -0.223.

Consider CCUUCACAAGCAAUAAGUCTT against Acot7, for which the z-score was inactive: -0.478. Regarding GCGAUCAGCAAGCUAAGCCTT against Mettl2, the z-score is inactive: 0.117. Regarding GGAACAUAUUAUCUCGGAGTT against Cit, the z-score is inactive: 0.0964. In the case of GGCGCGGCUGAAAUUUGAATT against Casc1 it was inactive: 0.372. The figure for CCUCUCAUGUGUGCCUAUATT against Pitpnm1 is inactive: -0.0699; for CCAUUUAUUUGGACUUGUATT against Lig4 it is inactive: 0.303; for GGCUUCAUUCGUAGGCCAUTT against Smcr8 it is inactive: 1.64. As to GGAGCACAAGAAGGAUAAGTT against Top1, the z-score is inactive: -0.4. In the case of GAGCAGCUCUUUAGCCAGGTT against Josd2 it was inactive: 0.582. As to GGUCAUGAGUAUUUUGACUTT against Klhl24, the z-score is inactive: -0.277.

As for GGUACUCGGUUAUCAUGAATT against Olfr418, the z-score is inactive: -0.457. GGGCGUGGUCAACUUCAAATT against Man1c1: the z-score was inactive: 0.129.

For GGUGGUAGAUGCGGAUGUGTT against Kif3b, the z-score was inactive: -0.822. As to CCUGAGUCCACUGAUGAAGTT against Gm9918, the z-score was inactive: -1.83.

Regarding CCUAAAGGGUUUAUAUGCATT against Slc26a3, the z-score is inactive: 0.287. Turning to GGGAAUUCUUUGUUAAUGATT against Ceacam9, the z-score is inactive: -0.879. Turning to GGGACAAAAACACAUGUACTT against Kif5c, the z-score was inactive: 0.773. With CCAUGCAAGAAUUAAAGCCTT against Anxa11, the z-score was inactive: -0.107.

For GCUUCCAUAUCUUUCAUAGTT against Olfr987, the z-score was inactive: -1.2.

On to GGACUUGUUCUUGUACAGCTT against Dop1b, for which the z-score is inactive: 1.3. As for GCUGACAAAGUGGUUUCUUTT against Olfr733, the z-score is inactive: -0.416. Turning to “CCACCAUCAAAUAUAACUATT against 9930021J03Rik”, the z-score was inactive: 0.708.

Take GGUGCUGACAUCCUCUUUUTT against Chd9: the z-score was inactive: 0.149. For the sequence GGGCAACUAUAGAAUAGUGTT against Asb2, the z-score is inactive: 1.6. Take CGACCUCAAAGAUGUGACGTT against Septin5: the z-score was inactive: -0.902.

Regarding GGAACACAAACUGAGCCUGTT against Fam20c, the z-score is inactive: -0.0655. As for GGGUGUUCGUUAGUCCUCUTT against Dlat, the z-score was inactive: -1.4.

Take GCUGAUCAUCCGUUUCACUTT against Hdc: the z-score is inactive: -0.227.

GGGUUCUUUUAGGUUGUCATT against Ccdc85a: the z-score was inactive: -0.123. As to GCCCAGGCAAAAUAAGGAGTT against Itpkc, the z-score was inactive: -0.166. The figure for GGAGCAUUAUGCUUUGUGGTT against Mgat1 is inactive: -0.613. As to GCCAAAUAUUGCUUUGUUGTT against Gadd45a, the z-score was inactive: -0.157. Consider GCCAAGAGGACAUUUGGCATT against Kif24, for which the z-score was inactive: 0.251. Regarding “CCUAAGAACCCUGAUCCUATT against A030005L19Rik”, the z-score is inactive: 1.08. For GGAGAUGCUAGAAAUUGUGTT against Hpca, the z-score is inactive: -0.909. On to CCCUCAAGAAUAUUUAACCTT against Smarcc1, for which the z-score is inactive: -0.399. On to GGCCAGAGAGUCAAGGUUATT against Gm5084, for which the z-score was inactive: -0.292. As to GGACAAUGACCAGAAUAGCTT against Them7, the z-score is inactive: -0.577. The figure for GCUUGUGCUGAAUUACACCTT against Vps35 is active: 2.11; for GGAAGGAGAAAAACAUAAATT against Hnrnpm it is inactive: -0.869. In the case of CGUAAGAAGUGGAUGAACATT against Zc3h7a it was inactive: -1.88; in that of GGAAACAGAAUGGAGUAAUTT against Rev1, inactive: -1.2; in that of GGUUUAAAAUAGGUUUGGATT against AI597479, inactive: 0.436. Turning to GGACUUUGGUUUUUGUAAGTT against Vasn, the z-score is inactive: -1.72. Take GGAGUUUGGAACAAGAGAUTT against Prkcsh: the z-score is inactive: -1.79. Consider GGACUCAUUGUCUUUAACATT against Amy1, for which the z-score was inactive: 1.88. On to GCUUAAUGAAUCAUCGGUUTT against Itga3, for which the z-score was inactive: 1.41.

Take CCAUAUUGGCAAUCUCUAGTT against Khdc1a: the z-score was active: 2.15. For GCCUCCACAUAGCUUCAACTT against Angel1, the z-score is inactive: -0.954. The figure for GCCGUACGAAAAAUAAGCATT against Rps7 is inactive: -0.402. Regarding GCCACUCACCUAGCAAAGATT against Fbrsl1, the z-score was inactive: -1.36. As to GGCCGUUCAUUUCCUCAUCTT against Galr2, the z-score was inactive: -0.359.

GGUUGUUCGUAGUCUUCCUTT against Slc5a9: the z-score is inactive: -0.559. In the case of CGGGAUGUCAAAGUGUCAUTT against Tmem14a it was inactive: -0.438.

In the case of GGCCAAAAGAACAAGGUUCTT against Obsl1, the z-score is inactive: 1.49.
